PubChem BioAssay AID686938, Drosophila RNAi Screening Center, 2013

- Screen: 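Fly genes required for calcium entry once internal stores are emptied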 (primary screen)
- System: Drosophila S2R+ cells
- Reagent: long dsRNA against Drosophila genes, about 0.25 µg dsRNA per well, roughly 10,000 cells
- Timing: 5 days of knock-down before the calcium assay
- Conditions: thapsigargin (SERCA pump blocker) to empty calcium stores; entry signal taken 4 min after adding it
- Measurement: 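Duplicate raw fluo-4 intensities per well from a plate reader, at rest and four minutes after thapsigargin emptied calcium stores; entry-to-rest ratio filled for only some wells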
- Reading the numbers: calcium entry signal: higher = stronger calcium signal after store depletion; entry to resting ratio: higher = more calcium entry relative to resting level; resting calcium signal: higher = higher resting calcium signal
- Rule for the call: 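Hit if the duplicate-averaged plate z-score for entry over resting signal is under −3; wells with weak total dye signal (Fmax z < −2) or more than 5 off-targets removed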
- Meaning of the calls: active = strongly reduced calcium entry; inactive = no strong reduction
The screen tested about 23,000 reagents; this is an unselected part of those with a known target gene and a result. Over the whole deposit, 75 (0.33%) got an active call. 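Raw plate signals without normalisation; calls rest on plate z-scores that were not deposited; ratio present for only 364 wells.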 A plus sign joins genes that one reagent is predicted to hit. Not stated in the record: the dose of the treatment.

The first 3 records, ahead of the listing:
no.	Target gene	dsRNA	calcium entry signal, replicate 1 (fluorescence units)	calcium entry signal, replicate 2 (fluorescence units)	entry to resting ratio	resting calcium signal, replicate 1 (fluorescence units)	resting calcium signal, replicate 2 (fluorescence units)	Call
1	CG5897	DRSC10555	2.74e7	3.65e7		1.47e7	1.50e7	inactive
2	dind (diamond)	DRSC16294	3.19e7	2.50e7		1.50e7	1.15e7	inactive
3	CG11400	DRSC06070	4.15e7	3.93e7		1.88e7	1.78e7	inactive

Results, from the start:
no.	Target gene	dsRNA	calcium entry signal, replicate 1 (fluorescence units)	calcium entry signal, replicate 2 (fluorescence units)	entry to resting ratio	resting calcium signal, replicate 1 (fluorescence units)	resting calcium signal, replicate 2 (fluorescence units)	Call
1	CG5897	DRSC10555	2.74e7	3.65e7		1.47e7	1.50e7	inactive
2	dind (diamond)	DRSC16294	3.19e7	2.50e7		1.50e7	1.15e7	inactive
3	CG11400	DRSC06070	4.15e7	3.93e7		1.88e7	1.78e7	inactive
4	CG4577	DRSC00658	3.25e7	2.96e7		1.64e7	1.34e7	inactive
5	Vps45 (Vacuolar protein sorting 45)	DRSC16398	4.74e7	3.89e7		2.56e7	2.24e7	inactive
6	anchor	DRSC10861	3.25e7	4.23e7		1.42e7	2.85e7	inactive
7	CG14834	DRSC10204	2.11e7	3.37e7		1.02e7	1.34e7	inactive
8	Zaf1 (ZAD and Architectural Function 1)	DRSC16121	4.25e7	4.02e7		2.18e7	2.00e7	inactive
9	ms(3)76Cc (male sterile (3) 76Cc)	DRSC11071	2.65e7	4.49e7		1.33e7	2.03e7	inactive
10	ms(3)76Cc (male sterile (3) 76Cc)	DRSC21630	3.27e7	3.31e7		1.83e7	1.55e7	inactive
11	bsh (brain-specific homeobox)	DRSC03498	6.51e7	3.29e7		2.90e7	1.63e7	inactive
12	Mst77F (Male-specific transcript 77F)	DRSC11871	3.21e7	4.64e7		1.65e7	2.05e7	inactive
13	CG34112	DRSC12235	3.22e7	4.95e7		1.46e7	2.08e7	inactive
14	Hexim (Hexamethylene bisacetamide inducible)	DRSC15490	2.67e7	3.72e7		1.29e7	1.61e7	inactive
15	CG32206	DRSC09602	3.17e7	4.89e7		1.73e7	2.13e7	inactive
16	CG32206	DRSC10094	2.56e7	4.27e7		1.20e7	1.78e7	inactive
17	CG32206	DRSC10095	2.40e7	4.24e7		1.19e7	1.83e7	inactive
18	CG32206	DRSC10096	2.33e7	4.14e7		1.18e7	1.77e7	inactive
19	CG32206	DRSC11080	2.23e7	4.04e7		1.10e7	1.71e7	inactive
20	r + CG13012	DRSC19531	3.18e7	2.88e7		1.76e7	1.37e7	inactive
21	Gs2 (Glutamine synthetase 2)	DRSC20250	2.93e7	3.57e7		1.41e7	1.58e7	inactive
22	mthl5 (methuselah-like 5)	DRSC16155	3.23e7	3.47e7		1.67e7	1.82e7	inactive
23	Sec3 (Secretory 3)	DRSC10384	3.73e7	4.79e7		1.82e7	3.22e7	inactive
24	Mur11Da (Mucin related 11Da)	DRSC18960	4.68e7	3.16e7		2.04e7	1.50e7	inactive
25	CG34423 + Mthfs	DRSC04088	3.25e7	3.89e7		1.71e7	1.70e7	inactive
26	Kr-h2 (Kruppel homolog 2)	DRSC03356	3.51e7	3.41e7		1.86e7	1.61e7	inactive
27	brat (brain tumor)	DRSC03497	4.70e7			2.37e7		inactive
28	Hmgcr (HMG Coenzyme A reductase)	DRSC16704	3.25e7	2.09e7		2.44e7	1.35e7	active
29	Zip89B (Zinc/iron regulated transporter-related protein 89B)	DRSC16128	3.48e7	4.38e7		1.78e7	7.17e7	inactive
30	papi	DRSC00693	3.79e7			1.88e7		inactive
31	CG11417	DRSC18581	2.94e7	3.58e7		1.59e7	1.89e7	inactive
32	eco (Establishment of cohesion)	DRSC11006	3.90e7	2.97e7		3.06e7	1.50e7	inactive
33	cass (cassowary)	DRSC01850	4.15e7			2.20e7		inactive
34	Ugt301D1 (UDP-glycosyltransferase family 301 member D1)	DRSC02021	5.56e7	3.51e7		2.23e7	1.69e7	inactive
35	CG6660	DRSC16087	6.12e7	3.91e7		2.59e7	1.57e7	inactive
36	Dph5 (Diphthamide methyltransferase)	DRSC16653	4.28e7	2.65e7		2.04e7	1.33e7	inactive
37	CG12698	DRSC19485	3.62e7	2.81e7		1.83e7	1.31e7	inactive
38	Polr2A (RNA polymerase II subunit A)	DRSC20280	1.89e7	1.64e7		1.13e7	1.01e7	inactive
39	CG4325	DRSC18516	3.66e7	3.77e7	1.7	2.11e7	1.87e7	inactive
40	CG4325	DRSC23171	8.35e7	1.61e7		3.45e7	7.89e6	inactive
41	sro (shroud)	DRSC14469	3.84e7	4.43e7		1.97e7	2.17e7	inactive
42	PolQ (DNA polymerase theta)	DRSC17006	4.08e7	4.44e7		1.98e7	2.14e7	inactive
43	CG8915	DRSC20119	3.11e7	3.36e7		1.58e7	1.57e7	inactive
44	r-l (rudimentary-like)	DRSC17042	4.17e7	4.04e7		1.88e7	1.91e7	inactive
45	r-l (rudimentary-like)	DRSC22784	3.81e7	3.07e7		1.88e7	1.24e7	inactive
46	Prosbeta1 (Proteasome beta1 subunit)	DRSC07159	1.80e7	2.18e7		1.24e7	1.32e7	inactive
47	CG5676	DRSC02875	2.93e7	3.67e7		1.39e7	1.55e7	inactive
48	Root (Rootletin)	DRSC15972	5.41e7	5.25e7		2.54e7	2.06e7	inactive
49	CG33284	DRSC22905	3.65e7	3.44e7		2.01e7	1.58e7	inactive
50	CG7196 (retired record)	DRSC01000	3.32e7	4.04e7		1.64e7	1.69e7	inactive
51	CG7196 (retired record)	DRSC03023	2.20e7	3.44e7		1.07e7	1.57e7	inactive
52	CG43610	DRSC00949	2.99e7	3.66e7		1.64e7	1.57e7	inactive
53	CG34377	DRSC13559	4.38e7	3.76e7		2.30e7	1.75e7	inactive
54	CG34377	DRSC14708	3.59e7	4.57e7		5.77e7	1.97e7	inactive
55	CG34377	DRSC14709	3.32e7	4.48e7		6.80e7	1.94e7	inactive
56	CG34377	DRSC14710	3.96e7	4.65e7		6.59e7	2.11e7	inactive
57	CG34377	DRSC14711	3.69e7	4.55e7		6.54e7	2.17e7	inactive
58	sowah (sosondowah)	DRSC09186	3.90e7	4.18e7		1.93e7	1.88e7	inactive
59	sowah (sosondowah)	DRSC09758	5.79e7	4.92e7		3.87e7	1.97e7	inactive
